# Library screening results

Source: ChEMBL document CHEMBL3988442, “University of Dundee, Small-Polar-MMV Screening Library” (2021).

The filed quantity is “Percent Effect” (%).
The controls that fix the scale are not given in the record; negative values are as filed.
This is an unselected part of the compounds tested.
A dash means the value is not listed here; it may have been measured.

A: 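Whole-cell assay for inhibitors of Mycobacterium tuberculosis growth, labelled Cornell in the record; the read-out is not stated. The concentration is filed as 10 mM, unlikely as a test dose, so the dose is not known. The record gives no direction; compounds strong in two other growth screens of this library score well above the rest, so higher reads as stronger inhibition. Size under these conditions: about 53,000 compounds, about 900 of them at 50% or above in at least one test.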
B: 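Assay on Mycobacterium tuberculosis, filed only as a heat shock assay from Cornell; the read-out is not stated. The concentration is filed as 10 mM, unlikely as a test dose, so the dose is not known. The record gives no direction; compounds that gave an IC50 in retests scored well above the rest, so higher reads as stronger inhibition. About 69,000 compounds were tested under these conditions; 1.4% (about 930) showed 50% or more at least once.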

Compound,A,B
CCc1cnc(NCC2OCCc3ccccc32)nc1 (configuration not stated),0.2301%,24.6%
CC(C)[C@]1(O)CN(C(=O)C2(Cn3cccn3)CC2)C[C@H]1C,3.496%,10.28%
COc1c(CNC2CCCOc3ccc(F)cc32)c(C(C)C)nn1C.Cl (configuration not stated),-,-10.1%
Cc1ccc(NC2CCN(C(=O)COC3CCCCC3)CC2)nn1,-10.77%,-17.39%
CN(C)c1cc(C2CCCN(S(=O)(=O)C3CCCC3)C2)ccn1 (configuration not stated),15.85%,4.615%
CN(C)c1ccc(-c2cc(C(=O)O)cc(S(=O)(=O)NC3CC3)c2)cc1,9.304%,34.18%
CC(C)(C)CN1CCCC2(CCN(C(=O)c3cn[nH]c3)C2)C1 (configuration not stated),30.02%,20.44%
COC(C)c1cccc(NCc2ccsc2)c1 (configuration not stated),19.91%,-16.31%
CC(=O)NC1CCCN(C(=O)Nc2cnc3c(cnn3C(C)C)c2)C1 (configuration not stated),22.37%,2.729%
COCCN1CC2(CCCN(C(=O)NCc3ccccc3)C2)CCC1=O (configuration not stated),7.444%,-3.045%
CNc1cc2c(nn1)CCN(C(=O)C1CCCc3ccccc31)C2 (configuration not stated),10.87%,8.126%
CCNc1ncc(C(=O)N2CCOC(CCCc3ccccc3)C2)cn1 (configuration not stated),10.22%,13.88%
CCOc1ccccc1CSCCn1nc2ccccn2c1=O,-10.59%,11.08%
CC(=O)N1CC(=O)N(c2cnn(C)c2)CC12CCN(Cc1cccs1)C2.O=C(O)C(F)(F)F (configuration not stated),22.84%,-1.108%
O=C(O)C(F)(F)F.O=C(O)C(F)(F)F.[H][C@@]12CO[C@@H](CN(C)Cc3cccnc3)[C@]1([H])CCN(C(=O)C1CC1)C2,0.9611%,-21.16%
CCNC(=O)[C@@H]1C[C@H](N)CN1Cc1ccc(-c2ccccc2C#N)o1,20.26%,29.95%
O=C(c1cccs1)N1CCc2c(nc(N3CCCCC3)[nH]c2=O)C1,11.87%,-1.963%
Cc1ccsc1C(=O)N1CC(C(=O)NC(C)C)C2(CCOCC2)C1 (configuration not stated),24.76%,-13.38%
Fc1cnc(N2CCCC3(CN(Cc4ccccc4)CCO3)C2)nc1.O=C(O)C(F)(F)F (configuration not stated),17.45%,7.339%
N#Cc1c(Cl)nsc1N1CCN(CC2CC2)CC1,8.013%,2.448%
Cn1c(=O)[nH]c(=O)n2c(CC(=O)Nc3ccc(Cl)c(Cl)c3)cnc12,-,-6.132%
CS(=O)(=O)NCCC1CCCCN1C(=O)NCCc1ccccc1 (configuration not stated),-,-41.31%
Cc1nc(CN(C)Cc2nc(-c3sccc3C)oc2C)no1,10.18%,-4.799%
O=C(O)C(F)(F)F.O=C(O)C(F)(F)F.O=C1CC2(CCN(Cc3ccncc3)C2)CN1c1cccc(F)c1 (configuration not stated),17.75%,10.66%
Cc1ccc(CNS(=O)(=O)CCCC#N)cc1F,6.478%,10.14%
CS(=O)(=O)CCSc1cccc(C#N)c1,12.16%,1.299%
CC(C)c1noc(C2CC(=O)N(CCN(C)C)C2)n1 (configuration not stated),-15.75%,-1.448%
COCCn1ccnc1C1CCCN(C(=O)c2cc(F)cc(F)c2)C1 (configuration not stated),-7.968%,-14.33%
CCC(CNS(C)(=O)=O)Oc1ccccc1C (configuration not stated),-,17.36%
CS(=O)(=O)CCC(=O)Nc1cnn(-c2ccccc2Cl)c1,21.41%,-2.43%
Cc1nnc2ccc(OCCNS(C)(=O)=O)nn12,8.969%,16.22%
CCC(C(=O)N(C)Cc1cc(COC)[nH]n1)n1cccn1 (configuration not stated),11.17%,-11.82%
CC(C)CN1CCC2(CCN(Cc3ccsc3)CC2)C1=O,8.164%,-22.6%
Cc1ccc(C(=O)Nc2cn[nH]c2)cc1F,-,-0.1311%
O=C(Nc1ccccc1OC1CCOC1)c1ccon1 (configuration not stated),-36.9%,19.22%
Cc1ccc(CNC(=O)Nc2nnc(C(C)C)s2)n1C,-,9.522%
COC(=O)c1cccc(NS(=O)(=O)c2cnc(NC(C)=O)s2)c1,-,-19.33%
CC(=O)c1ccc(CNC(=O)c2c(C)cc(C)cc2C)nc1C,-,11.63%
COC(=O)c1ccc(N2CCN(C(=O)c3cccnc3)C(C)C2)cc1 (configuration not stated),-,-18.21%
CCOc1ccc(NC(=O)NC2CCc3nc(C)nn3C2)cc1Cl (configuration not stated),-6.308%,9.734%
[H][C@@]12CS(=O)(=O)C[C@]1([H])N(Cc1ccc(OC)c(O)c1)CCN2CC1CC1,20.04%,-7.739%
O=C(CS(=O)(=O)Cc1cc(Cl)c2c(c1)OCCCO2)NCC1CC1,-,-19%
O=C(c1cccnc1)N1CCOC(CCCc2ccccc2)C1 (configuration not stated),14.93%,-7.185%
Cn1cc(CN2CCCC3(CCN(c4cccnc4)C3=O)C2)cn1 (configuration not stated),-64.88%,-40.15%
Cc1cc(NC2CC3(CCN(Cc4ncccc4F)C3)C2)ncn1 (configuration not stated),1.655%,-9.506%
Cc1ccc(F)cc1NC(=O)C1CCCN1C(=O)C(C)C (configuration not stated),6.907%,10.16%
CCN(C(=O)CCCOC)C(c1ccc(Cl)cc1)c1ccccn1 (configuration not stated),-18.84%,-23.33%
CC(c1ccccc1)N(C)C(=O)Cn1cc(NC(=O)C(C)(C)C)cn1 (configuration not stated),-,-23.86%
COCCc1noc(C2CCCN(c3nc(N)nc4c3CCCC4)C2)n1 (configuration not stated),-11.37%,17.19%
COc1ccccc1Oc1ncccc1CNC(=O)C(C)CN (configuration not stated),-36.98%,-2.615%

Some entries from above, unchanged:

| Compound | A | B |
|---|---|---|
| `CC(=O)NC1CCCN(C(=O)Nc2cnc3c(cnn3C(C)C)c2)C1` (configuration not stated) | 22.37% | 2.729% |
| `Cc1ccc(NC2CCN(C(=O)COC3CCCCC3)CC2)nn1` | -10.77% | -17.39% |
| `O=C(Nc1ccccc1OC1CCOC1)c1ccon1` (configuration not stated) | -36.9% | 19.22% |
| `CS(=O)(=O)NCCC1CCCCN1C(=O)NCCc1ccccc1` (configuration not stated) | - | -41.31% |